Taken from: PubChem BioAssay AID504791 (Drosophila RNAi Screening Center, 2011)

Test: 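Genes of the fly required for silencing by miRNA, siRNA or endo-siRNA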 (primary screen)
Cell system: Drosophila S2-derived reporter cells
Reagent: long dsRNA against Drosophila genes, about 150-250 ng dsRNA per well (siRNA assay); about 80-120 ng (miRNA assay)
Duration: about 5 days (siRNA assay); about 4 days (miRNA assay)
Treatment: copper sulfate induction of reporters: 25 µM (siRNA assay); 200 mM stated (miRNA assay), 1-2 days before reading
Measured: 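Dual luciferase assay: Renilla to firefly signal ratio in each well, scaled to the mean ratio of its plate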
Direction: siRNA reporter hit score: higher = 3 marks a strong hit with raised ratio; -3 a strong hit with lowered ratio
Hit rule: 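a well was a first-pass pick when its plate-scaled ratio rose above 1.5 (siRNA assay) or 1.6 (miRNA assay), or dropped below 0.6; a gene counted only if two separate dsRNAs agreed on retest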
The deposit covers about 23,000 reagents; this is a random part of those that have a named target and a result. Over the whole deposit, 199 (0.86%) are marked active. 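Plate-scaled ratios behind the calls are not deposited; printed light signals are raw; many rows marked increased or decreased are still called inactive.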 A plus sign joins genes that one reagent is predicted to hit. No sequences are given here.

| gene knocked down | DRSC id | siRNA reporter hit score | stable siRNA reporter change | miRNA reporter change | stable assay Renilla, run 1 (luminescence) | stable assay firefly, run 1 (luminescence) | activity call |
| --- | --- | --- | --- | --- | --- | --- | --- |
| CG17260 | DRSC00497 | – | – | – | 13639 | 2.13e5 | inactive |
| CG17855 | DRSC02638 | – | – | – | 5746 | 3.71e5 | inactive |
| CG34232 | DRSC05332 | – | – | – | 5062 | 3.15e5 | inactive |
| CG8003 | DRSC10946 | – | – | – | 7814 | 5.00e5 | inactive |
| Src64B (Src oncogene at 64B) | DRSC08700 | – | – | – | 6148 | 4.28e5 | inactive |
| CG32773 (retired record) | DRSC17330 | – | – | – | 7379 | 3.91e5 | inactive |
| Bx (Beadex) | DRSC19350 | – | – | – | 4808 | 5.12e5 | inactive |
| Bx (Beadex) | DRSC23048 | – | – | – | 5982 | 3.21e5 | inactive |
| CG18449 | DRSC06754 | – | – | – | 6931 | 4.16e5 | inactive |
| CG5262 | DRSC11773 | – | – | – | 8389 | 3.18e5 | inactive |
| Vps11 (Vacuolar protein sorting 11) | DRSC11909 | – | – | – | 5819 | 3.89e5 | inactive |
| Vps11 (Vacuolar protein sorting 11) | DRSC21579 | – | – | – | 10006 | 5.68e5 | inactive |
| Pglym87 (Phosphoglyceromutase 87) | DRSC15252 | – | – | – | 6414 | 4.50e5 | inactive |
| yps (ypsilon schachtel) | DRSC11411 | – | – | – | 4943 | 2.84e5 | inactive |
| Gyc32E (Guanylyl cyclase at 32E) | DRSC01154 | – | – | – | 4295 | 2.76e5 | inactive |
| Pgant5 (Polypeptide N-Acetylgalactosaminyltransferase 5) | DRSC03149 | – | – | – | 12863 | 4.16e5 | inactive |
| Gr64c (Gustatory receptor 64c) | DRSC08445 | – | – | – | 6451 | 3.69e5 | inactive |
| CG3597 | DRSC00617 | – | – | – | 7554 | 3.99e5 | inactive |
| alpha-Est4aPsi (pseudo) | DRSC12473 | – | – | – | 4647 | 2.97e5 | inactive |
| l(3)73Ah (lethal (3) 73Ah) | DRSC11359 | – | – | – | 9071 | 3.62e5 | inactive |
| CG17821 | DRSC06696 | – | – | – | 5884 | 2.83e5 | inactive |
| senju | DRSC02366 | – | – | – | 6235 | 3.53e5 | inactive |
| Pkd2 (Polycystic kidney disease 2) | DRSC02962 | – | – | – | 7336 | 4.85e5 | inactive |
| ver (verrocchio) | DRSC10125 | – | – | – | 6291 | 4.51e5 | inactive |
| PolZ2 (DNA polymerase zeta subunit 2) | DRSC12325 | – | – | – | 6871 | 3.94e5 | inactive |
| Alg3 (ALG3, alpha-1,3- mannosyltransferase) | DRSC04700 | – | – | – | 11062 | 1.35e6 | inactive |
| CG9917 | DRSC20218 | – | – | – | 7156 | 5.42e5 | inactive |
| Octbeta1R (Octopamine beta1 receptor) | DRSC16134 | – | – | – | 7347 | 4.97e5 | inactive |
| dar1 (dendritic arbor reduction 1) | DRSC08049 | – | – | – | 4360 | 3.70e5 | inactive |
| dar1 (dendritic arbor reduction 1) | DRSC08233 | – | – | – | 6971 | 4.53e5 | inactive |
| Hr39 (Hormone receptor-like in 39) | DRSC03346 | – | – | – | 7259 | 4.78e5 | inactive |
| CG8952 | DRSC20133 | – | – | – | 6850 | 3.36e5 | inactive |
| CG8093 | DRSC07078 | – | – | – | 5879 | 3.48e5 | inactive |
| CG31086 + CG31323 | DRSC14902 | – | – | – | 6744 | 3.37e5 | inactive |
| ppk28 (pickpocket 28) | DRSC19919 | – | – | – | 5639 | 4.31e5 | inactive |
| ClC-a (Chloride channel-a) | DRSC14947 | – | – | – | 5968 | 3.60e5 | inactive |
| ClC-a (Chloride channel-a) | DRSC14948 | – | – | – | 6322 | 4.01e5 | inactive |
| ClC-a (Chloride channel-a) | DRSC16142 | – | – | – | 7578 | 3.89e5 | inactive |
| Bace (beta-site APP-cleaving enzyme) | DRSC02197 | – | – | – | 4615 | 4.86e5 | inactive |
| Faa (Fumarylacetoacetase) | DRSC08451 | – | – | – | 7871 | 4.57e5 | inactive |
| CG1421 | DRSC03707 | – | – | – | 6796 | 3.21e5 | inactive |
| CG8152 | DRSC07083 | – | – | – | 7064 | 3.29e5 | inactive |
| MED25 (Mediator complex subunit 25) | DRSC14483 | 3 | – | – | 4759 | 1.36e5 | inactive |
| MED25 (Mediator complex subunit 25) | DRSC22981 | – | – | reporter ratio raised past the hit cutoff | 5063 | 3.76e5 | active |
| Rh3 (Rhodopsin 3) | DRSC16822 | – | – | – | 9061 | 2.91e5 | inactive |
| Vang (Van Gogh) | DRSC07570 | – | – | – | 6720 | 3.91e5 | inactive |
| mxt (mextli) | DRSC00551 | – | – | – | 9748 | 2.76e5 | inactive |
| Vha100-5 (Vacuolar H[+] ATPase 100kD subunit 5) | DRSC02175 | – | – | – | 6938 | 4.31e5 | inactive |
| Atx2 (Ataxin-2) | DRSC15727 | 3 | reporter ratio raised past the hit cutoff | – | 6659 | 2.18e5 | inactive |
| Atx2 (Ataxin-2) | DRSC23010 | – | – | – | 2356 | 2.62e5 | inactive |
| CG31266 | DRSC15747 | – | – | – | 6298 | 3.50e5 | inactive |
| CG4364 | DRSC02742 | – | – | – | 8566 | 1.18e6 | inactive |
| CG6565 | DRSC02970 | – | – | – | 77384 | 1.80e6 | inactive |
| CG10194 | DRSC02025 | – | – | – | 52510 | 1.41e6 | inactive |
| luna | DRSC05253 | – | – | – | 6535 | 3.31e5 | inactive |
| luna | DRSC06663 | – | reporter ratio raised past the hit cutoff | – | 6019 | 1.95e5 | inactive |
| luna | DRSC07336 | – | – | – | 4807 | 4.07e5 | inactive |
| CG1227 | DRSC12534 | – | – | – | 8223 | 4.10e5 | inactive |
| Swip-1 (Swiprosin-1) | DRSC02083 | – | – | – | 6007 | 1.34e6 | inactive |
| Swip-1 (Swiprosin-1) | DRSC02084 | – | – | – | 6775 | 3.36e5 | inactive |
| BORCS6 (BLOC-1 related complex subunit 6) | DRSC08514 | – | – | – | 5578 | 3.49e5 | inactive |
| CR33318 (pseudo) | DRSC22949 | – | – | – | 5064 | 4.03e5 | inactive |
| Camp (Cathelicidin-like antimicrobial protein) | DRSC07004 | – | – | – | 6467 | 3.69e5 | inactive |
| CG34166 | DRSC02482 | – | – | – | 3983 | 4.17e5 | inactive |
| CG34115 | DRSC03840 | – | – | – | 7995 | 5.59e5 | inactive |
| d4 | DRSC04881 | – | – | – | 11776 | 1.28e6 | inactive |
| d4 | DRSC22674 | – | – | – | 4775 | 5.27e5 | inactive |
| CG15753 (retired record) | DRSC19718 | – | – | – | 3931 | 2.62e5 | inactive |
| CG15753 (retired record) | DRSC22985 | – | – | – | 4954 | 3.82e5 | inactive |
| Sgp (Sgroppino) | DRSC02195 | – | – | – | 8511 | 5.81e5 | inactive |
| CG3792 | DRSC02725 | – | – | – | 8483 | 4.55e5 | inactive |
| mei-9 (meiotic 9) | DRSC18792 | – | – | – | 6127 | 3.02e5 | inactive |
| sle + CG12592 | DRSC21387 | – | – | – | 10157 | 4.85e5 | inactive |
| fy (fuzzy) | DRSC03533 | – | – | – | 7384 | 3.60e5 | inactive |
| Balat (Beta-alanine transporter) | DRSC06852 | – | – | – | 7396 | 3.25e5 | inactive |
| cu (curled) | DRSC15643 | – | – | – | 5799 | 3.42e5 | inactive |
| cu (curled) | DRSC15648 | – | – | – | 5864 | 3.66e5 | inactive |
| Sry-beta (Serendipity beta) | DRSC16868 | – | – | – | 8370 | 4.18e5 | inactive |
| CG31683 + CG18858 | DRSC02703 | – | – | – | 6870 | 3.94e5 | inactive |
| Ir48c (Ionotropic receptor 48c) | DRSC06154 | – | – | – | 5059 | 2.82e5 | inactive |
| CG33272 | DRSC09116 | – | – | – | 4551 | 3.38e5 | inactive |
| CG11374 | DRSC00306 | – | – | – | 7623 | 4.42e5 | inactive |
| GstD8 (Glutathione S transferase D8) | DRSC16689 | – | reporter ratio raised past the hit cutoff | reporter ratio raised past the hit cutoff | 9487 | 3.47e5 | inactive |

Taken from above:
Result for luna [DRSC05253] under “stable assay Renilla, run 1 (luminescence)”: 6535
Vang (Van Gogh) [DRSC07570], stable assay firefly, run 1 (luminescence): 3.91e5
Value for Atx2 (Ataxin-2) [DRSC23010] under “stable assay Renilla, run 1 (luminescence)”: 2356
Vha100-5 (Vacuolar H[+] ATPase 100kD subunit 5) [DRSC02175], activity call → inactive
For “stable assay Renilla, run 1 (luminescence)”, Balat (Beta-alanine transporter) [DRSC06852] shows 7396
Entry of CG34166 [DRSC02482] in “stable assay Renilla, run 1 (luminescence)”: 3983
